# Cleaved PARP after 72 h of treatment

Source: doi:10.1371/journal.pone.0140310, primary screening data, rounded.

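Human melanoma cells were exposed to a pair of drugs for 72 h in 1,536-well plates and read by automated microscopy after fixing and staining. Values are the share of nuclei positive for cleaved PARP as a percentage of the same share in the DMSO control: 100 is the control level, higher means more apoptosis. Every drug was used at one fixed concentration, the higher of two screened. These are primary screening values without error estimates. The marker varies much from line to line, for technical or biological reasons.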
An unselected part of the screen is shown.
A dash means that no value is listed here.

Every entry is a combination with TCS401 at 8.33 µM: O=C(O)C(=O)Nc1sc2c(c1C(=O)O)CCNC2

| # | Second drug | A101D | 501mel | COLO 800 | LOX IMVI | C32 | IPC-298 |
|---|---|---|---|---|---|---|---|
| 1 | Cc1cc([N+](=O)[O-])ccc1NS(=O)(=O)c1cc(Cl)ccc1Cl at 5 µM | 111 | 253 | 64.3 | 53.1 | 122 | 78.9 |
| 2 | O=c1cc(-c2cccc3c2Sc2ccccc2S3)oc(N2CCOCC2)c1 at 5 µM | 38.1 | 44.8 | 180 | 63.5 | 88.4 | 89.0 |
| 3 | O=C(Oc1ccc([N+](=O)[O-])cc1)N1CCC(C(O)(c2ccc3c(c2)OCO3)c2ccc3c(c2)OCO3)CC1 at 5 µM | 111 | 94.5 | 38.2 | 69.0 | 85.7 | 243 |
| 4 | Oc1cc(-c2nc(-c3ccccc3)[nH]c2-c2ccncc2)ccc1Cl at 1 µM | 117 | 175 | 58.0 | 28.9 | 315 | 67.8 |
| 5 | CO[C@H]1C[C@@H]2CC[C@@H](C)[C@@](O)(O2)C(=O)C(=O)N2CCCC[C@H]2C(=O)O[C@H]([C@H](C)C[C@@H]2CC[C@@H](OCCO)[C@H](OC)C2)CC(=O)[C@H](C)/C=C(\C)[C@@H](O)[C@@H](OC)C(=O)[C@H](C)C[C@H](C)/C=C/C=C/C=C/1C at 0.1 µM | 44.2 | 191 | 81.8 | 158 | 99.6 | 145 |
| 6 | CCCCCCCCCCCC1=C(O)C(=O)C=C(O)C1=O at 6 µM | 141 | 141 | 254 | 42.9 | 112 | 40.4 |
| 7 | Cc1nc(Nc2ncc(C(=O)Nc3c(C)cccc3Cl)s2)cc(N2CCN(CCO)CC2)n1 at 0.02 µM | 59.1 | 69.5 | 170 | 290 | 159 | 83.8 |
| 8 | Nc1cccc2c1CN(C1CCC(=O)NC1=O)C2=O (stereo unspecified) at 5 µM | 179 | 155 | 108 | 103 | 102 | 129 |
| 9 | Cn1nnc2c(C(N)=O)ncn2c1=O at 10 µM | 179 | 168 | 39.5 | 58.4 | 201 | 78.0 |
| 10 | COc1ccc(C2=N[C@@H](c3ccc(Cl)cc3)[C@@H](c3ccc(Cl)cc3)N2C(=O)N2CCNC(=O)C2)c(OC(C)C)c1 at 0.5 µM | 110 | 102 | 142 | 147 | 86.1 | 88.1 |
| 11 | Nc1nc(F)nc2c1ncn2[C@@H]1O[C@H](CO)[C@@H](O)[C@@H]1O at 1 µM | 53.2 | 822 | 133 | 167 | 80.1 | 63.5 |
| 12 | NC1(c2ccc(-c3nc4ccn5c(=O)[nH]nc5c4cc3-c3ccccc3)cc2)CCC1 at 2 µM | 162 | 30.8 | 79.2 | 82.9 | 86.5 | 57.2 |
| 13 | COCC[n+]1c2c(n(Cc3cnccn3)c1C)C(=O)c1ccccc1C2=O at 0.002 µM | 103 | 61.4 | 65.1 | 107 | 80.0 | 261 |
| 14 | C#Cc1cccc(Nc2ncnc3cc(OCCOC)c(OCCOC)cc23)c1 at 4 µM | 110 | 101 | 130 | 196 | 97.0 | 89.6 |
| 15 | Nc1ncn([C@H]2C[C@H](O)[C@@H](CO)O2)c(=O)n1 at 0.5 µM | 71.9 | - | 88.6 | 173 | 66.4 | 123 |
| 16 | NCC(=O)Nc1ccc(-n2nc(C(F)(F)F)cc2-c2ccc3c(ccc4ccccc43)c2)cc1 at 5 µM | 453 | 1930 | 633 | 43.9 | 98.5 | 95.0 |
| 17 | COc1cc2ncnc(Nc3ccc(Oc4ccccc4)cc3)c2cc1OC at 10 µM | 71.2 | 57.0 | 75.0 | 102 | 72.1 | 40.5 |
| 18 | CS(=O)(=O)c1ccc(C(=O)Nc2ccc(Cl)c(-c3ccccn3)c2)c(Cl)c1 at 5 µM | 49.2 | 73.2 | 196 | 123 | 65.4 | 172 |
| 19 | O=C1NC(=O)/C(=C/c2ccc(-c3ccc(F)cc3O)o2)S1 at 5 µM | 36.7 | 188 | 144 | 151 | 173 | 43.5 |
| 20 | Cc1cc(Nc2cc(N3CCN(C)CC3)nc(/C=C/c3ccccc3)n2)n[nH]1 at 0.2 µM | 267 | 57.0 | 170 | 47.9 | 83.6 | 42.8 |
| 21 | N#Cc1c(O)c2c(-c3ccc(-c4ccccc4O)cc3)csc2[nH]c1=O at 10 µM | 41.4 | 56.3 | 19.4 | 86.9 | 84.3 | 39.4 |

The last 2 entries again:

Second drug	A101D	501mel	COLO 800	LOX IMVI	C32	IPC-298
Cc1cc(Nc2cc(N3CCN(C)CC3)nc(/C=C/c3ccccc3)n2)n[nH]1 at 0.2 µM	267	57.0	170	47.9	83.6	42.8
N#Cc1c(O)c2c(-c3ccc(-c4ccccc4O)cc3)csc2[nH]c1=O at 10 µM	41.4	56.3	19.4	86.9	84.3	39.4